This passage reports binding results from paper PMC10570388.

No constants are given. Whether binding was seen depends on the method and setting. For part of these data: A result given as binding can be weak or reduced; the word gives no strength.

Common to all, as to experiment: two-hybrid; One-to-one Matchmaker Gold Y2H in Y2HGold cells: pGBKT7-bait and pGADT7-prey; growth and blue colour on QDO/X/A against DDO, 3–5 days at 30 °C
For experiment [1], the target named is PoxRsrA_(1128-1440) (Penicillium oxalicum).
The target of experiment [2] is PoxRsrA_(1434–1730)^M1510A (Penicillium oxalicum).
In experiment [3] the target is PoxRsrA_(1128-1730) (Penicillium oxalicum).
For experiment [4], the target named is PoxRsrA_(1434–1730)^D1508A (Penicillium oxalicum).
The target in experiment [5] is PoxRsrA_(1434–1730)^W1509A (Penicillium oxalicum).

B1: Med16 (POX_d05606) (protein, UniProt S7ZNH3 1-950)
chain: MPLIMDEGINVDDLFGEAHSLDLGLPPAASLPATKGLAQCLDEMRLLGCRQRIAWSRLGAIAYISADGVRVCVRNLQSGLSDGKWGLSDECSLAPVTEAHNGNQLVHLSWSDAGSDLAVVDCMGRISIYSIFMALNNITGLRQASYDSGDDSNQIVGLMWLNPGRQVQAYQQAAKLNNRWAYSPFRWRPTHPSHPAGKSSLITVTRAGQIRLMYQNINGKWAEVPAELKNTGYSDRLLTHAAMVATQGTILLATYSVCQKLCLYRVEIAWTPNKWDPTVMRSPNKWPVPALRLLHYKIDMPSSIWSINHDSEAQMAQSVPFPNSVYSLTRLEMIPGQVDSPTGPTTTSPWILGVFSKPLHASSEFPLQQGPASVIVRWQLDSTQQSLHPKFDEVVSRKTHTQIKPKIEMRRLEDIHLNKYIVSVDLMEHVTAPALALTHSDGSIAFYETKTMTLFNGLDDASTVNCFAQAGFQFPIDAPGLSIAFSPNSCAAVVLDSGSQPRLRWMEHNFGSSGGLYDEGKFSAAIAALTLAFSRGSGSDSNTDDIMMVVLGQLSLENQPTFLGEVYRALSINCNFTVEPDKIMTHTYIPRALSLQTSLGFRGRNRPRTMPSAMSWTVLQLRHSSLLFATYFQHCNNFPAEQSDSGILHALLGNTRWALSMSQFILNEILDLADDFESVLHDSEAFSQKLKTTTSLPLLISLSSMSRAFMRIICRGLRGVRNGFENVNTAAIDAESRSCWVEICRAIETSPIRVDLYEKFLAGVDSAVKHAYQGSGFGDAERPSPEKELLVNARIPPVLVPAVETLFTQTVPSIRSEINRKEIVMGDYSWLGLDNDPGTATYRKRHDIDILMKVPLRPVTGRQDLAVAPMARRRRCVRCGEISGDAGRPRTNAWTKMMLRLHALKMCPCGGAWVMETPDSVSPEGVSSSGGLGGSGPVNVSKAVEVAGSG
Regarding B1, the binding result was “no binding” in experiment [1]; “no binding” in experiment [2]; “binds” in experiment [3]; “binds” in experiment [4]; “binds” in experiment [5].

B2: Med6 (POX_c04649) (protein, UniProt S8AK07 1-340)
chain: MASQSAPMEEIIWRSPQHVQMMGGYLHSNNILFYFAESPFFDPQSNNGTLATQATYNESLRHVVETRATFEGKLKQMQGLEFLVSFDPLEAAARSNPNRFDFEPNNIWVIRKQERRKRSGMEDEVTVLATYFVVGDTVYMAPSVASIVGNRILTAVTSISRLMKTASTLPIFTPSTGHTYLPPTARTTESGQQPSQPSKENTPMPDAPQPSVAETQISGKASLGVSTGSSSYQDIRNLAEAFRLFNQYGDEFMDEHPLTGEPGSFILSRAGETDRPAGAAAKVASKASLGTGVNTPAGIRARSTTPQVRIDTPGKLSDKGNTPPSSVENKLKKKKGRVVS
On to B2, for which the binding entry in experiment [1] and in experiment [3] was “binds” in each case.

B3: Med8 (POX_b02367) (protein, UniProt S8B7D0 1-260)
chain: MAPLTSEDYKVLEQARQRLVQLTRSLGSLVSSLEQGDPLPPWSSIQAQANIISNNLISVTEHLSDHRDLLTSIVAYPGPEYPGRTQENMLQQLLRTKLDPRVDDWVARGRAIGTAPNTSSVTHAASSGTIPNPSEVATTNTKQLTDAELTELWQWAPIEANQEARQRNWGGNYTLEEREAGIQNVVTGLRKPLEDDDGSDDEDEDEGEDDEGEDEMEVVGVHRKPSGGVEYDIAPHHAHPVTPVVPLDKILRYMTTGHMP
With B3, the binding result in experiment [1] is “no binding”; in experiment [2], “no binding”; in experiment [3], “binds”; in experiment [4] it was “no binding”; in experiment [5] it was “binds”.
